Test results reported in PMC4299599, “Quantification of cytosolic interactions identifies Ede1 oligomers as key organizers of endocytosis” (Molecular Systems Biology, 2014).
No constants are given. Whether binding was seen depends on the method and setting. For part of these data: Where a sequence is shown, tags or fusion partners need not be part of it. Each block holds one binder with its values, some of them ahead of it.

Columns and labels:
Ede1 (S. cerevisiae) = target: T1, Ede1 (S. cerevisiae) (UniProt P34216); assay: condition: 1000 nM (only Kdeff-values < 1000 nM are shown); fluorescence cross-correlation spectroscopy (FCCS); in the cytoplasm of living yeast cells; first-named protein green (3myeGFP or 1myeGFP; eGFP for Don1), second red (3mCherry); self-interaction in diploid strains with one allele of each colour; apparent or effective KD (Kdeff) from single-cell measurements; only Kdeff values < 1000 nM are shown; values for self-interactions are upper limits
T1 sequence: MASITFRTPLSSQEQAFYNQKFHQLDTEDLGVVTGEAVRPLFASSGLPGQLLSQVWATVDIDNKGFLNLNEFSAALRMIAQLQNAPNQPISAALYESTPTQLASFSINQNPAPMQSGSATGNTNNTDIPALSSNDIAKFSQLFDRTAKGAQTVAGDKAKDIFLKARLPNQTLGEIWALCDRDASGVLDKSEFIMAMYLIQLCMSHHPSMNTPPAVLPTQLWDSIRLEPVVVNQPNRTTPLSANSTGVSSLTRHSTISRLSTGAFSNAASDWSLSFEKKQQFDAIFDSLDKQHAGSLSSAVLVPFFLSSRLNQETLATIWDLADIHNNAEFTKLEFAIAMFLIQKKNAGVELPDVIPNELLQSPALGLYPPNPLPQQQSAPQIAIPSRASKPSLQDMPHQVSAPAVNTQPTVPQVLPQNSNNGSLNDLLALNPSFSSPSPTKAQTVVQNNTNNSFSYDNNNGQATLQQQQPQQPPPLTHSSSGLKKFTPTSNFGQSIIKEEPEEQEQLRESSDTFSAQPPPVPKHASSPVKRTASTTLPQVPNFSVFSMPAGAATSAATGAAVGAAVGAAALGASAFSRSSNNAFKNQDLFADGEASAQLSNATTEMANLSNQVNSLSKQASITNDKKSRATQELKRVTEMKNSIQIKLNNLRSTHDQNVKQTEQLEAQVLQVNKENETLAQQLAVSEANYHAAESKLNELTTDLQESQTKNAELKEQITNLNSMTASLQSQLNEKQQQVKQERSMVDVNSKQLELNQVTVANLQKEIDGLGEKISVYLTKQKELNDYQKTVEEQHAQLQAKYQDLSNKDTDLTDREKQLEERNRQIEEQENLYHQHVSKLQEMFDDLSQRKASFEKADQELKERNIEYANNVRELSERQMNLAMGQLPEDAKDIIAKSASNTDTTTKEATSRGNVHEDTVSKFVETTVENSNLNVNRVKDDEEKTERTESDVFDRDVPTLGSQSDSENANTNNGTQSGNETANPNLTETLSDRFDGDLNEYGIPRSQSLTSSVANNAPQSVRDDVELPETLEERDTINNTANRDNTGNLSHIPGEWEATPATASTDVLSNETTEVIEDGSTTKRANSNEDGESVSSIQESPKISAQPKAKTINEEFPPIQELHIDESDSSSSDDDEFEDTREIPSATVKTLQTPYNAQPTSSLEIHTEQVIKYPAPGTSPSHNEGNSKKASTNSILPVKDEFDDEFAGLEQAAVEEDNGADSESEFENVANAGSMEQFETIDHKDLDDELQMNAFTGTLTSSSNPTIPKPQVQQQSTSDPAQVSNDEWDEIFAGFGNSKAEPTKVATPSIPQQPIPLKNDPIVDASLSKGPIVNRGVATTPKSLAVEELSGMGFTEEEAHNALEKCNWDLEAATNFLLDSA

Apl3 [1] = target: T2, Apl3 (S. cerevisiae, UniProt P38065 1-1025); assay: as above
T2 construct: Apl3, subunit of the AP2 complex, S. cerevisiae; also called Apl3-3myeGFP; Apl3-3mCherry; source: chromosomally tagged at the endogenous locus, in the cytoplasm of living S. cerevisiae cells
T2 sequence (looked up): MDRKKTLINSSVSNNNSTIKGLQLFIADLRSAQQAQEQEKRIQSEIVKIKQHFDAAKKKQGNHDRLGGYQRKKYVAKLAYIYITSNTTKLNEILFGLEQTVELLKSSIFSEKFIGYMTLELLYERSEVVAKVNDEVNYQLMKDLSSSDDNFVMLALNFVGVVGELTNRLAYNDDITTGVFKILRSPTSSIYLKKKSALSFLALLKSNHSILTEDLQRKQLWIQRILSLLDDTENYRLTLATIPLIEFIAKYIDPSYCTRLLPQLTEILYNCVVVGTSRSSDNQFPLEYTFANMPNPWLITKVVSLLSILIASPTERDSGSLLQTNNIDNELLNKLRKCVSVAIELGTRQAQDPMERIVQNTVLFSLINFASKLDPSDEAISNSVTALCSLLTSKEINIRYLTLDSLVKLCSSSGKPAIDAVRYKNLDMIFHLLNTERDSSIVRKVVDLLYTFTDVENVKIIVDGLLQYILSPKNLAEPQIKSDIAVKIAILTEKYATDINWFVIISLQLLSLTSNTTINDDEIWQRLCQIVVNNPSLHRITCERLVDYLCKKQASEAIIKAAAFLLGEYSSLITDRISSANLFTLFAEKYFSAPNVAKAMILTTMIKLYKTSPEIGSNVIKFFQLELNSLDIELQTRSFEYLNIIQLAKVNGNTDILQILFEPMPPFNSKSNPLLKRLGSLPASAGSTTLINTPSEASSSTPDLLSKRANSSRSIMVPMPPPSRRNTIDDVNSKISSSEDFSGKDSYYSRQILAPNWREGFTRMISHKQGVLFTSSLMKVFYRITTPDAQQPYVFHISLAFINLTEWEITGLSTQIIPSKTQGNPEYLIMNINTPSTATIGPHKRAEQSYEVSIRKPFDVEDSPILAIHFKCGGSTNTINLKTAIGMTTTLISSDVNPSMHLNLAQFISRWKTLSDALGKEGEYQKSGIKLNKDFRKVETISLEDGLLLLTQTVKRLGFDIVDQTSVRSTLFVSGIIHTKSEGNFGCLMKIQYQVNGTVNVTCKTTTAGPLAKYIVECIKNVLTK

Apl3 [2] = target: T2, Apl3; assay: condition: detection range of FCCS: apparent KD up to ~1 μM; fluorescence cross-correlation spectroscopy (FCCS); self-interaction: living diploid yeast cells with one allele fused to (3)myeGFP and one to (3)mCherry, cytoplasm; apparent (effective) KD, to be taken as the upper limit since complexes of one colour are not seen
[3] = target: ede1Δ591–1381 (myeGFP / mCherry fusions) (S. cerevisiae) (UniProt P34216); assay: fluorescence cross-correlation spectroscopy (FCCS); self-interaction: living diploid yeast cells with one allele fused to (3)myeGFP and one to (3)mCherry, cytoplasm; apparent (effective) KD, to be taken as the upper limit since complexes of one colour are not seen
[4] = target: ede1Δ591–1381 (myeGFP / mCherry fusions) (S. cerevisiae) (UniProt P34216); assay: FCS molecular brightness (counts per particle per second); living yeast cells, cytoplasm; brightness of GFP-tagged particles compared with 3myeGFP and Ent2-3myeGFP (monomers) or with wild-type Ede1; average of all particles
Ste11-3mCherry = target: T3, Ste11-3mCherry (S. cerevisiae, UniProt P23561 1-717); assay: fluorescence cross-correlation spectroscopy (FCCS); living yeast cells, observation volume in the cytoplasm; one protein tagged with (3)myeGFP/eGFP and the other with 3mCherry in the same strain; apparent (effective) KD; interactions up to ~1 μM detectable
T3 construct: Ste11, S. cerevisiae; negative control of FCCS; source: S. cerevisiae strain Don1-eGFP, Ste11-3mCherry, in living cells
T3 sequence (looked up): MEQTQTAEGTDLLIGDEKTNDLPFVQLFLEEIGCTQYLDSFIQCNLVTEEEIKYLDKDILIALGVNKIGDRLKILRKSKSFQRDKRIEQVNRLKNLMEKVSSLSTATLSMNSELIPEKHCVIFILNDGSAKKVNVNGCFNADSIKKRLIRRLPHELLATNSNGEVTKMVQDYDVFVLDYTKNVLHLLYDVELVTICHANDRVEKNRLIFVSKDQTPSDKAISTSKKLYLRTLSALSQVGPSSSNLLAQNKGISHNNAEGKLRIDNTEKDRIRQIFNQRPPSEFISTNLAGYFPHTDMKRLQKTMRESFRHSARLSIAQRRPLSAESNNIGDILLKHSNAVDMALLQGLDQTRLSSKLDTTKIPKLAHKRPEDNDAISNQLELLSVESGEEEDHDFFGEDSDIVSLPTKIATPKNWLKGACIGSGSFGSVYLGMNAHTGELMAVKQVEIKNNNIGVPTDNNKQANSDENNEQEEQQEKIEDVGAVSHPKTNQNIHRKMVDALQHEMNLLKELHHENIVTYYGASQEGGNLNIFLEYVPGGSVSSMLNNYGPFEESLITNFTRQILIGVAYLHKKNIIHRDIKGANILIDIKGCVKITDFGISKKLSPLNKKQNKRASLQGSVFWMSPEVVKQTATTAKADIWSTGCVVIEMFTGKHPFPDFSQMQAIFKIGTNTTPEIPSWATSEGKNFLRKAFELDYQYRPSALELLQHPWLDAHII

binding (Ede1 (S. cerevisiae)): no binding | binding (Apl3 [1]): no binding | binding (Apl3 [2]): no binding
B1: Apl3 (protein, UniProt P38065 1-1025)
chain: T2 sequence (looked up)

binding [3]: no binding (tested: > 1 μM) | binding [4]: no binding
B2: ede1Δ591–1381 (myeGFP / mCherry fusions) (domain or fragment, S. cerevisiae, UniProt P34216 1-590, looked up)
chain: MASITFRTPLSSQEQAFYNQKFHQLDTEDLGVVTGEAVRPLFASSGLPGQLLSQVWATVDIDNKGFLNLNEFSAALRMIAQLQNAPNQPISAALYESTPTQLASFSINQNPAPMQSGSATGNTNNTDIPALSSNDIAKFSQLFDRTAKGAQTVAGDKAKDIFLKARLPNQTLGEIWALCDRDASGVLDKSEFIMAMYLIQLCMSHHPSMNTPPAVLPTQLWDSIRLEPVVVNQPNRTTPLSANSTGVSSLTRHSTISRLSTGAFSNAASDWSLSFEKKQQFDAIFDSLDKQHAGSLSSAVLVPFFLSSRLNQETLATIWDLADIHNNAEFTKLEFAIAMFLIQKKNAGVELPDVIPNELLQSPALGLYPPNPLPQQQSAPQIAIPSRASKPSLQDMPHQVSAPAVNTQPTVPQVLPQNSNNGSLNDLLALNPSFSSPSPTKAQTVVQNNTNNSFSYDNNNGQATLQQQQPQQPPPLTHSSSGLKKFTPTSNFGQSIIKEEPEEQEQLRESSDTFSAQPPPVPKHASSPVKRTASTTLPQVPNFSVFSMPAGAATSAATGAAVGAAVGAAALGASAFSRSSNNAFKNQDLF
notes: 1myeGFP fusion for FCS; diploid with one myeGFP and one mCherry allele for FCCS; Each copy carries one tag; also called ede1^Δ591–1391; source: S. cerevisiae, endogenously expressed truncation mutant, in living cells; not shown: myeGFP, C-terminal, kept; mCherry, C-terminal, kept

binding (Ste11-3mCherry): no binding (tested: > 1 μM)
B3: Don1-eGFP (natural protein, S. cerevisiae, UniProt Q05610 1-365, looked up)
chain: MGKKNRKGKENNAAKTSFLKVENIKNTNSGLELPSQDYTNVEEKESSPKTDFPLITKEHVNTKTDSNILDYPTIGDLVSSVEKLCVLKELKIAFPEVDDTLIKAILIASQGVLEPAFNSLLYYSSPEENTDFALPMKPISVEDYSKINVSEILQREIFDDIEDEFSGQGINGSMVISKIESELSSLAEHIGNISTPGSNREVAESTRNVAVAEGHNTILSNEDSILKGKEKGKEEEKEKGEEKGVNSLKGAAVKVVAKSLKNNRIPVTVKRNEPSNNLFDVLNCDESEEEEEQDVETNTSNQERKNQGGNTEVPEAQRDSADRLPAKDDGGYKSAFGTDSCGLFAADAKDEKKQVHPSRQELSFT
notes: Don1, S. cerevisiae; negative control of FCCS; source: S. cerevisiae strain Don1-eGFP, Ste11-3mCherry, in living cells
